Measured values as given in article PMC10163288.
Some of the results follow.

B1: il2ra_site1_3nfp_sap_15_mot_HHH_b1_00049_af2_000000088_0001_39_52_H_._HHH_b2_00565_af2_0001_0000500027_0000001_0_0001_af2pred_0001_af2pred_1_swapped (protein)
chain: SELEKEVEELLENGNPAKALDVLLRIARERDDPEVAQLIAELARRAARGEIPPEEAVRLALELLK
B2: il2ra_site2_3nfp_normal_mot_HHH_b1_05785_af2_000000002_0001_41_57_H_._HHH_b2_01690_af2_0001_0001000024_0000001_0 (protein)
chain: SSSSDDAEEYLRAALLLLELALEEGDEELFRRHAELIRLLAESLEDEEVQERVRELEEEFDSSSS
B3: il2ra_site1_1z92_normal_mot_HHH_b2_04375_000000267_0001_42_56_H_._a7d4ab743ae57deeac5d741f7278d18b_0001_0001_0000100010_0000001_0_af2pred_0001_af2pred_1 (protein)
chain: SEEELEELAKELGVPPEEVKVVLRLLREAEELGIPPEKVLEALIRNAERNGNPKLAEVLRELLER
B4: il2ra_site2_2erj_normal_mot_af86707857d369f3e1d85dcabc5f9321_0001_000000201_0001_14_29_H_._HHH_b2_01431_af2_0001_0000100004_0000001_0 (protein)
chain: SSSSEEAEELLEQAKELLEKGNPEEALKLLRKAFLIAYRLGDHELAAELQTLAHEAVRLEASSSS
B5: il2ra_site1_3nfp_normal_mot_d3e5e791db42274430e6ef9f54efc4f5_0001_af2_000000091_0001_1_15_H_._0e682a828debfc2446b6fbf8e9701eca_0001_0001_0000100007_0000001_0_af … (protein)
chain: SKVEEAKKKLKEAILARDIKKVYELLKELTELLGDEKEAARLAIEIAREAGRPKLVRFLEHALKC
B6: il2ra_site1_1z92_sap_10_mot_ems_4hC_799_0001_000000043_0001_18_33_H_._5202e8ad13ee9de4b1286d7ece000ddb_0001_af2_0001_0000400030_0000001_0_0001_af2pred_0001_af2p … (protein)
chain: SSSSSELEEFAREVVEELVKEFNLSERQQKSLEYIARLAVELGADEEEIEKALRRFAEFLGSSSS
B7: il2ra_site1_3nfp_sap_6_mot_HHH_b1_00258_000000025_0001_42_56_H_._HHH_b2_05877_0001_0000100002_0000001_0_0001 (protein)
chain: SADEYAVRMLKKDGFPPEKIVERLVKTAERVYNIPPEEAIKWLLEWLEELGDPLAEVVKELEERK
B8: il2ra_site1_2b5i_sap_7_mot_HHH_b1_01574_000000118_0001_1_19_H_._HHH_b1_01642_0001_0000300019_0000001_0_0001_af2pred_0001_af2pred_1 (protein)
chain: SSSSSDSREVFELLREANELFRNGNPEEAKRVLEEARELAEEAGNKNLLKSIEIALRLIESSSSS
B9: il2ra_site2_2erj_sap_26_mot_6ec3e94b46d95805cdcdc10c0c108f03_0001_af2_000000040_0001_36_50_H_._HHH_b2_08137_af2_0001_0000100005_0000001_0_0001 (protein)
chain: SSSSNEELHELYELAVRLLRLVAEGDEEEFEEVFKQLEKLIEELNSDTAREVLEALRKLLHSSSS
B10: il2ra_site1_3nfp_sap_20_mot_ems_3hC_921_af2_000000143_0001_22_40_H_._HHH_b1_02666_af2_0001_0000100004_0000001_0_0001_af2pred_0001_af2pred_1 (protein)
chain: SAVEELVRRALEEGKPPEEILRRFRETAEKLGLPPEEVLRIILEVAREVGDPELEELVEKELEET
B11: il2ra_site2_2erj_normal_mot_HHH_b1_02701_000000206_0001_22_38_H_._ems_3hM_2546_0001_0000400007_0000001_0_af2pred_0001_1_af2pred_swapped (protein)
chain: SSPEEAEKLLAEISRIAYERNDEEVFSRVSELMDLLHEARRNNDEETIERIAEELEELLEKIRSS
B12: il2ra_site2_2erj_sap_19_mot_HHH_b2_05866_000000027_0001_43_57_H_._HHH_b2_00454_0001_0000300014_0000001_0_0001 (protein)
chain: SSDDRQKVLRELSRKFLEAARRNDEEALEEVVRLAEELAEEFDDPQLRAIAETLRRMLEWVRSSS
B13: il2ra_site1_1z92_sap_11_mot_96c1ddac3a320f3fb7c3d0e7ac756063_0001_000000061_0001_1_12_H_._ad75df98f761ac54d5817c2236956e28_0001_1_af2_0001_0000100003_0000001_0_ … (protein)
chain: TEYLKEQLERKVERGNPEAAVKLLVKMAESLAGGNPEEAEKAVRRLVEELGLPPEVREKVEELLK
B14: il2ra_site1_2b5i_normal_mot_fe74bfd50694bb190af954a823403fd2_0001_af2_000000294_0001_1_15_H_._HHH_b2_03631_af2_0001_0000300009_0000001_0 (protein)
chain: SSSSTEDELASEALKLLRRLLAKGNEEEAEELLKEVVKLLEEAGNETAARDLRRFFEIFGSSSSS
B15: il2ra_site1_1z92_normal_mot_54e474eed2d0515e81978198f0f96ec2_0001_000000202_0001_15_30_H_._877bfc5a5079d34557376665d7030903_0001_0001_0000100013_0000001_0_af2pr … (protein)
chain: SAERVAAIAAELDKRDPRAAKYLRLLWDLVQKHKDDISVLIRELRHLAELRQDPHLALAAELLLE
B16: il2ra_site2_3nfp_normal_mot_HHH_b1_03376_000000004_0001_41_55_H_._4975baa4e6927a9e2efcc4d468b24295_0001_1_af2_0001_0000300016_0000001_0_af2pred_0001_af2pred (protein)
chain: DIKQILRRALEENPDNEALFEAFALLIELLRRGVPPEEVERIVVEFLKELGDPEAEEVARELEET
B17: il2ra_site2_2erj_sap_21_mot_HHH_b1_08185_000000106_0001_41_55_H_._HHH_b1_05357_0001_0000100003_0000001_0_0001 (protein)
chain: DESIELTLEMLLEGDPLARRFLELTLHSVLGNPEEVEKILEELEELVENGDPEKAVELFKEALSR
B18: il2ra_site1_1z92_sap_13_mot_8e74d2c0662b2664e0165ba77bf01796_0001_af2_000000260_0001_19_33_H_._HHH_b1_04306_af2_0001_0000200009_0000001_0_0001_af2pred_0001_af2p … (protein)
chain: SSSSNKHEEILKSALKRIERAVEDGDPEKAEELIKFAEIAAKKFNDEEVEERLRELREEISSSSS
B19: il2ra_site2_3nfp_sap_27_mot_HHH_b1_07764_000000013_0001_24_39_H_._e8837ef3cdfbf3e926567bf0d89cea13_0001_0001_0000100012_0000001_0_0001 (protein)
chain: SSSSEEELKELEEEIRRLLEEGNLDEAAKLIEELLKLALELNDEEAIKVVLELYKILKERASSSS

Biological target: il2ra, P01589
Test: yeast display titration

Apparent Kd, inactive:
B1 no binding seen
B2 no binding seen
B3 no binding seen
B4 no binding seen
B5 no binding seen
B6 no binding seen
B7 no binding seen
B8 no binding seen
B9 no binding seen
B10 no binding seen
B11 no binding seen
B12 no binding seen
B13 no binding seen
B14 no binding seen
B15 no binding seen
B16 no binding seen
B17 no binding seen
B18 no binding seen
B19 no binding seen

Two neighbouring records from above, quoted:
Apparent Kd, inactive:
B13 no binding seen
B14 no binding seen
